# Experimental data from the supplement of paper PMC8728848.
# The other results are listed elsewhere or left out.
# B1: PX14379D-pdi-530-26-530 (Parabacteroides distasonis) (protein)
# chain: DETVYDKLPADDFGQSTAELNALIGNSHNTMKKFWTEYMHLSECSGSMAVTPTRRGGDWYDGGQYREIYMHTWTSQTSRVKSAWKAATEAIGTCNEAIRKLQNSEILTEEEKAQDVADLRGVRAFWIYVMMDYWGNIPLLTEFHPTDKVFPGNSSRQEVFDWLIQEVEEIKDICPPATTENYGSFTQGAAYSLLAKLYLNAEAWGVTFSGNAYQKVIDNCDKVMAMGYILEPNWKDNFSVTNENSKEAILAATFSSSDTGNDGNVKNELHNNTLHYKDYLSLGITASGTWNGICAQPEYVRLFDEEDARLDGTFLTGLMIDKSTGKPIMTDHNNELNHTIDVNMIPGMEYDGTNWSAVEQHDGARCFKWEFASDLTSSMGNDFHIFRLADIYLMKAEALLRGGGSVSEATALVNTIRERGYGNSDHNYATVTLKEVQLERRLELAWEVYSRQDDIRFGCFTTGMWPQSNCERKADDYLKLLPVSQDAWQVNPNLKQNPGYAAFSK
# Assays:
# Experiment in all cases: glycan array binding signal (z-score within array); higher = stronger binding
# Settings in all cases: glycan notation: IUPAC condensed, linker removed
# [1] = target: Gal(b1-4)GlcNAc(b1-2)Man(a1-3)[Gal(b1-4)GlcNAc(b1-2)Man(a1-6)]Man(b1-4)GlcNAc(b1-4)[Fuc(a1-6)]GlcNAc
# In short: (§1)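 The binding signal is a Z-score computed within each array. Data were drawn from 3228 arrays in the Consortium for Functional Glycomics database, restricted to those with a known protein sequence. Scores were averaged over arrays of the same protein sequence at different concentrations or buffers, and over linkers, and negative values can be taken as non-binding.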
# [2] = target: Gal(b1-4)GlcNAc(b1-2)Man(a1-3)[Gal(b1-4)GlcNAc(b1-2)Man(a1-6)][Gal(b1-4)GlcNAc(b1-4)]Man(b1-4)GlcNAc(b1-4)[Fuc(a1-6)]GlcNAc
# In short: as §1
# [3] = target: Gal(b1-4)GlcNAc(b1-2)Man(a1-3)[Gal(b1-4)GlcNAc(b1-2)Man(a1-6)][GlcNAc(b1-4)]Man(b1-4)GlcNAc(b1-4)[Fuc(a1-6)]GlcNAc
# In short: as §1
# [4] = target: Gal(b1-4)GlcNAc(b1-2)Man(a1-3)[GlcNAc(b1-2)Man(a1-6)]Man(b1-4)GlcNAc(b1-4)GlcNAc
# In short: as §1
# [5] = target: Gal(b1-4)GlcNAc(b1-2)Man(a1-3)[GlcNAc(b1-4)][Gal(b1-4)GlcNAc(b1-2)Man(a1-6)]Man(b1-4)GlcNAc(b1-4)GlcNAc
# In short: as §1
# [6] = target: Gal(b1-4)GlcNAc(b1-2)Man(a1-3)[Man(a1-6)]Man(b1-4)GlcNAc(b1-4)GlcNAc
# In short: as §1
# [7] = target: Gal(b1-4)GlcNAc(b1-2)Man(a1-6)Man(b1-4)GlcNAc(b1-4)GlcNAc
# In short: as §1
# [8] = target: Gal(b1-4)GlcNAc(b1-2)Man(a1-6)[GlcNAc(b1-2)Man(a1-3)]Man(b1-4)GlcNAc(b1-4)GlcNAc
# In short: as §1
# [9] = target: Gal(b1-4)GlcNAc(b1-2)Man(a1-6)[Man(a1-3)]Man(b1-4)GlcNAc(b1-4)GlcNAc
# In short: as §1
# [10] = target: Gal(b1-4)GlcNAc(b1-2)[Gal(b1-4)GlcNAc(b1-4)]Man(a1-3)[Gal(b1-4)GlcNAc(b1-2)Man(a1-6)]Man(b1-4)GlcNAc(b1-4)GlcNAc
# In short: as §1
# [11] = target: Gal(b1-4)GlcNAc(b1-2)[Gal(b1-4)GlcNAc(b1-4)]Man(a1-3)[Gal(b1-4)GlcNAc(b1-2)[Gal(b1-4)GlcNAc(b1-6)]Man(a1-6)]Man(b1-4)GlcNAc(b1-4)GlcNAc
# In short: as §1
# [12] = target: Gal(b1-4)GlcNAc(b1-2)[Gal(b1-4)GlcNAc(b1-4)]Man(a1-3)[GlcNAc(b1-4)][Gal(b1-4)GlcNAc(b1-2)Man(a1-6)]Man(b1-4)GlcNAc(b1-4)GlcNAc
# In short: as §1
# [13] = target: Gal(b1-4)GlcNAc(b1-2)[Gal(b1-4)GlcNAc(b1-4)]Man(a1-3)[GlcNAc(b1-4)][Gal(b1-4)GlcNAc(b1-2)[Gal(b1-4)GlcNAc(b1-6)]Man(a1-6)]Man(b1-4)GlcNAc(b1-4)GlcNAc
# In short: as §1
# [14] = target: Gal(b1-4)GlcNAc(b1-2)[Gal(b1-4)GlcNAc(b1-6)]Man(a1-6)[Gal(b1-4)GlcNAc(b1-2)Man(a1-3)]Man(b1-4)GlcNAc(b1-4)GlcNAc
# In short: as §1
# [15] = target: Gal(b1-4)GlcNAc(b1-2)[Gal(b1-4)GlcNAc(b1-6)]Man(a1-6)[Gal(b1-4)GlcNAc(b1-2)Man(a1-3)]Man(b1-4)GlcNAc(b1-4)[Fuc(a1-6)]GlcNAc
# In short: as §1
# [16] = target: Gal(b1-4)GlcNAc(b1-2)[Gal(b1-4)GlcNAc(b1-6)]Man(a1-6)[GlcNAc(b1-4)][Gal(b1-4)GlcNAc(b1-2)Man(a1-3)]Man(b1-4)GlcNAc(b1-4)GlcNAc
# In short: as §1
# [17] = target: Gal(b1-4)GlcNAc(b1-2)[Gal(b1-4)GlcNAc(b1-6)]Man(a1-6)[GlcNAc(b1-4)][Gal(b1-4)GlcNAc(b1-2)[Gal(b1-4)GlcNAc(b1-4)]Man(a1-3)]Man(b1-4)GlcNAc(b1-4)[Fuc(a1-6)]GlcNAc
# In short: as §1
# [18] = target: Gal(b1-4)GlcNAc(b1-3)Gal(b1-3)GalNAc
# In short: as §1
# [19] = target: Gal(b1-4)GlcNAc(b1-3)Gal(b1-3)GlcNAc
# In short: as §1
binder,measurement,setting,value
B1,glycan array binding signal (z-score),[1],-0.591
same,glycan array binding signal (z-score),[2],-0.365
same,glycan array binding signal (z-score),[3],-0.865
same,glycan array binding signal (z-score),[4],0.214
same,glycan array binding signal (z-score),[5],-0.811
same,glycan array binding signal (z-score),[6],-0.319
same,glycan array binding signal (z-score),[7],0.173
same,glycan array binding signal (z-score),[8],-0.083
same,glycan array binding signal (z-score),[9],-0.735
same,glycan array binding signal (z-score),[10],0.028
same,glycan array binding signal (z-score),[11],-1.27
same,glycan array binding signal (z-score),[12],0.047
same,glycan array binding signal (z-score),[13],-0.002
same,glycan array binding signal (z-score),[14],0.197
same,glycan array binding signal (z-score),[15],0.548
same,glycan array binding signal (z-score),[16],0.184
same,glycan array binding signal (z-score),[17],-0.675
same,glycan array binding signal (z-score),[18],-0.744
same,glycan array binding signal (z-score),[19],-1.08

# No new results follow: an excerpt of the list.
binder,measurement,setting,value
B1,glycan array binding signal (z-score),[16],0.184
same,glycan array binding signal (z-score),[17],-0.675
same,glycan array binding signal (z-score),[18],-0.744
